Measurements reported in PubChem BioAssay AID504808 (Drosophila RNAi Screening Center, 2011).

Purpose: 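Chromatin factors that keep E2F targets switched off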 (primary screen)
Cell system: Drosophila S2 cells
Knock-down reagent: long dsRNA against Drosophila genes
Measurement: 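Dual luciferase plate measurements; E2F-specific signal taken as firefly over Renilla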
Reading the numbers: E2F firefly: higher = more E2F reporter activity; Renilla normaliser: higher = more normaliser reporter signal
Active means: 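a knock-down counted as active when the firefly/Renilla E2F signal rose above 50%, a threshold chosen arbitrarily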
In all, the deposit lists about 21,000 reagents; shown is an unselected part of those that have a named target and a result. Over the whole deposit, 18 (0.084%) got an active call. 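Raw counts without plate normalisation, one of two replicates; the ratio scores behind the calls were not deposited.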 Entries without a mark were called inactive. Reagents against one gene are numbered here. Names joined by + are all predicted targets of the reagent. The record does not give: the amount of reagent, the time to read-out.

target gene	dsRNA no.	E2F firefly, rep 1	Renilla normaliser, rep 1
Acph-1 (Acid phosphatase 1)	1	1.10e5	6738
ZnT35C (Zinc transporter 35C)	1	1.07e5	4302
Cdc23 (Cell division cycle 23)	1	82771	3627
Reck (Reversion-inducing-cysteine-rich protein with kazal motifs)	1	68748	3458
Reck (Reversion-inducing-cysteine-rich protein with kazal motifs)	2	1.60e5	7887
CG43795	1	1.11e5	5049
CG43795	2	1.11e5	4734
CG43795	3	1.00e5	4106
CG43795	4	1.01e5	4541
CG43795	5	1.02e5	4087
CIAPIN1 (Cytokine induced apoptosis inhibitor 1)	1	84442	3730
Rpn1 (Regulatory particle non-ATPase 1)	1	52697	3864
Vdup1 (Vitamin D[[3]] up-regulated protein 1)	1	99513	4317
CG31778	1	81806	3533
CG33269	1	90852	6079
PpY-55A (Protein phosphatase Y at 55A)	1	1.35e5	4699
subdued	1	71579	4236
CG17344	1	87005	3929
I-t (inhibitor-t)	1	1.40e5	6237
CG44001 + CG33995	1	1.26e5	5186
CG44001 + CG33995	2	1.05e5	4181

Continued; the last 6 above are carried over.
target gene	dsRNA no.	E2F firefly, rep 1	Renilla normaliser, rep 1
PpY-55A (Protein phosphatase Y at 55A)	1	1.35e5	4699
subdued	1	71579	4236
CG17344	1	87005	3929
I-t (inhibitor-t)	1	1.40e5	6237
CG44001 + CG33995	1	1.26e5	5186
CG44001 + CG33995	2	1.05e5	4181
P58IPK	1	1.65e5	6442
Unr (Upstream of N-ras)	1	76245	3759
qkr58E-2 (quaking related 58E-2)	1	92794	4573
sav (salvador)	1	1.11e5	5536
sav (salvador)	2	1.09e5	6170
PIG-U (Phosphatidylinositol glycan anchor biosynthesis class U)	1	75455	3474
Gr77a (Gustatory receptor 77a)	1	61439	2145
CG7201	1	1.02e5	3975
CG13561	1	1.09e5	4759
Stacl + CG8179 (retired record)	1	56392	3273
CG7706	1	72074	3257
CG3984	1	1.01e5	6102
MFS16 (Major Facilitator Superfamily Transporter 16)	1	1.09e5	4950
ppk26 (pickpocket 26)	1	97542	4072
CG9890	1	1.01e5	4549
PolZ2 (DNA polymerase zeta subunit 2)	1	1.34e5	6771
CG2217 + CG42740	1	1754	972
CG32681	1	90197	2684
ERp60 (Endoplasmic reticulum p60)	1	156	46
CG11291	1	1.05e5	4312
CG6688	1	1.13e5	5673
Obp56d (Odorant-binding protein 56d)	1	1.61e5	5356
CG12522	1	1.06e5	4002
Atf6	1	1.33e5	6310
Atf6	2	1.23e5	4602
comr (cookie monster)	1	1.02e5	4689
unc-4	1	1.69e5	6387
hdm (hold'em)	1	59809	3999
CG32213 + CG12519 + 825-Oak + 1 more	1	79098	3575
KrT95D (Krueppel target at 95D)	1	74998	3825
Jhbp5 (Juvenile hormone binding protein 5)	1	1.20e5	6010
CG5021	1	92383	3830
CG16898	1	1.34e5	5222
CG12017	1	1.21e5	4699
Gmppa (GDP-mannose pyrophosphorylase A)	1	95077	4060
Epp (Ecdysteroid phosphate phosphatase)	1	71341	3718
